Results published in publication PMC6011117, “Comparative Evaluation of Radioiodine and Technetium-Labeled DARPin 9_29 for Radionuclide Molecular Imaging of HER2 Expression in Malignant Tumors” (Contrast Media & Molecular Imaging, 2018).
Results are given in words; binding and its absence hold for the method and conditions named. Some entries that bind do so weakly or less than the wild type. One block for each binder: values may come before it.

Molecular target: human epidermal growth factor receptor 2 (HER2) (human (endogenous in SKOV-3, BT474, DU145)) (UniProt P04626)
Assay: radioligand binding; cell-bound activity on HER2-expressing SKOV-3, BT474 and DU145 cells in dishes; labelled conjugate at 10 nM, 1 h at 37°C; control dishes presaturated for 30 min with a 100-fold excess (1000 nM) of unlabeled DARPin 9_29 or other agents; only the binder purified

binding: binds
B1: [125I]I-DARPin 9_29 (designed binder)
chain: MDLGKKLLEAARAGQDDEVRILMANGADVNAHDFYGITPLHLAANFGHLEIVEVLLKHGADVNAFDYDNTPLHLAADAGHLEIVEVLLKYGADVNASDRDGHTPLHLAAREGHLEIVEVLLKNGADVNAQDKFGKTAFDISIDNGNEDLAEILQKLAAALE
modifications: iodine-125 label attached to tyrosine (direct radioiodination)
notes: designed ankyrin repeat protein 9_29 against HER2; also called radioiodinated DARPin 9_29; source: E. coli BL21(DE3), purified (HisTrap HP, MonoQ); directly radioiodinated with chloramine T, purified on NAP-5; not shown: His6, C-terminal, kept

binding: binds
B2: [99mTc]Tc(CO)3-DARPin 9_29 (designed binder)
chain: B1 chain
modifications: [99mTc]Tc(CO)3 chelated by the C-terminal hexahistidine tag
notes: designed ankyrin repeat protein 9_29 against HER2; also called 99mTc(CO)3-DARPin 9_29; [99mTc]Tc-DARPin 9_29; source: E. coli BL21(DE3), purified (HisTrap HP, MonoQ); labelled with technetium-99m tricarbonyl, purified on NAP-5; not shown: His6, C-terminal, kept

binding: binds
B3: DARPin 9_29 (unlabeled) (designed binder)
chain: B1 chain
